The numbers were not newly measured in patent publication US20250017878A1 (Chronic Airway Therapeutics Limited, priority 2021, published 2025), which cites them from elsewhere.

For this data set the following is noted: after oral intake; cited from earlier work.

The structures appear in SMILES notation.

On to `CC(C)[N+]1(C)[C@@H]2CC[C@H]1C[C@@H](OC(=O)C(CO)c1ccccc1)C2` (stereo partly shown) [Ipratropium bromide, ipratropium bromide], for which the “time of peak plasma concentrations” value is 3 h.
